The structures appear in SMILES notation. Some of the results follow. The main result of the screen is listed elsewhere. These columns were measured beside it and carry no call. The list favours compounds with an active or inconclusive main result. Words in brackets tell the shape of the fitted curve; partial curves, single points and poor fits give uncertain potencies.

The assay in a line: qHTS Assay to Find Inhibitors of Chronic Active B-Cell Receptor Signaling. Particulars: ABC-DLBCL IkBa-CBG/CBR reporter, luminescence ratio (green luciferase fused to IkBa over red control in TMD8 lymphoma cells), 4 h. The method, boiled down:
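Compounds up to 46 uM were incubated four hours with TMD8 cells whose green CBG68 luciferase is fused to IkappaBalpha; red CBR luminescence normalised the signal, and concentration-effect curves were fitted to fusion, red and ratio data.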

The mark [1] stands for this setting: measured here: CBR red luminescence, cell number.
The mark [2] stands for this setting: measured here: IkBa-CBG green luminescence.

In the case of `COc1cccc(-c2c(C(=O)N/N=C(\C)c3cccs3)nnn2-c2nonc2N)c1`, the AC50 under setting [1] was 15.8 µM [falling, single point].

As to `Cc1cc2ncn(CCCCOc3ccccc3)c2cc1C`, the AC50 under setting [1] is 23.1 µM [rising, partial curve, poor fit]. For `CC1CC(C)CN(S(=O)(=O)c2ccc(C(=O)NCc3ccco3)cc2)C1` (centres undefined), the AC50 under setting [1] is 35.5 µM [rising, partial curve, poor fit]. Take `O=C(NNC(=O)c1ccccc1Br)c1ccc(SCC2CCCO2)c([N+](=O)[O-])c1` (centres undefined): the AC50 under setting [1] is 3.55 µM [falling, partial curve, poor fit]. With `CC1CCc2sc3ncn4nc(C(=O)NCc5ccco5)nc4c3c2C1` (centres undefined), under setting [1], the AC50 was 6.51 µM [rising, single point].

For the compound `O=C1CCCC(O)=C1N=Nc1cccc(C(=O)O)c1`, the AC50 under setting [1] was 4.47 µM [falling, full curve]. As to `Cc1cccc(NC(=O)c2ccc(C(=O)c3ccccc3)o2)c1`, the AC50 under setting [1] is 25.1 µM [falling, single point]. With `NC(=O)c1ccc(N=C2C(=O)Nc3ccc([N+](=O)[O-])cc32)cc1`, the AC50 was 22.4 µM [rising, single point] under setting [1] and 25.1 µM [falling, single point] under setting [2]. For the compound `COc1cc(/C=N/N=C2/NC(=O)C(Cc3ccccc3)S2)ccc1O` (centres undefined), the AC50 under setting [1] is 10 µM [falling, partial curve, poor fit] and the AC50 under setting [2] was 11.2 µM [falling, single point]. Consider `CCN(CC)CCSc1nc2ccc(OC)cc2[nH]1`, for which, under setting [1], the AC50 is 0.891 µM [rising, full curve, poor fit]. In the case of `NS(=O)(=O)c1ccc(NC(=O)CSc2nc3ccccc3c(=O)n2Cc2ccncc2)cc1`, under setting [1], the AC50 is 18.4 µM [rising, partial curve].

For the compound `O=C(N/N=C/c1ccc(O)cc1)c1ccc(NC(=O)c2ccccc2Br)cc1`, the AC50 under setting [1] was 35.5 µM [falling, single point]. For `O=C(Nc1nc(-c2ccccc2)cs1)c1ccccc1NS(=O)(=O)c1ccc(F)cc1`, under setting [1], the AC50 was 2.91 µM [falling, full curve, poor fit]. With `COc1ccc(C)cc1S(=O)(=O)N(CC(=O)Nc1cccc([N+](=O)[O-])c1)c1ccc(C)c(C)c1`, the AC50 is 0.58 µM [falling, full curve, poor fit] under setting [1] and 2.59 µM [rising, partial curve, poor fit] under setting [2]. In the case of `COc1ccc(N)c2c1C(=O)c1ccccc1C2=O`, the AC50 under setting [1] is 1.46 µM [falling, partial curve, poor fit]. For `CCCC(=O)Nc1ccc(NC(=O)c2cccc(OC)c2)nc1`, the AC50 under setting [1] is 12.6 µM [falling, partial curve, poor fit].

By AC50 is commonly meant the concentration at which the activity in the assay is half-maximal.

The record behind these values is PubChem BioAssay AID493014 (National Center for Advancing Translational Sciences (NCATS), 2011).
